According to US8907080B2, “Process for imparting water solubility or water dispersibility to hydrophobic cluster compound” (Daiso Co., Ltd., priority 2009, dated 2014):
The name of at least one read-out is uncertain.

Assay: Water solubilization of m-carborane by DMSO-renature method
Type: physicochemical

In the case of β-1,3-1,6-D-glucan [AQUA β], the “Capability of water-solubilizing a boron cluster compound relative to sizofuran” value is reported as “about 8 times”.
